Source: PubChem BioAssay AID602196 (INSERM, 2012)

- Screen: 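Knock-downs that protect lung cancer cells from cisplatin or sensitise them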
- Cell system: human A549 lung cancer cells
- Reagents: siRNA pair against human genes
- Duration: 48 h transfection before cisplatin; time from cisplatin to read-out not stated
- Treatment: cisplatin at a dose killing half of control-siRNA cells; exact dose and duration not given
- Measured: 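Cisplatin cell death as a shift from the 50% death seen with control siRNA; siRNAs toxic or growth-blocking alone scored 0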
- Scale: two-siRNA summed score (-2 to +2): higher = both siRNAs protect from cisplatin killing; -2 means both sensitise; mean protection from cisplatin (shift in death): higher = protection from cisplatin killing
- Rule for the call: 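siRNAs harmful alone (LDH or WST-1) get 0; others get +1 for less and -1 for more cisplatin killing; genes are active when the two siRNAs give the same sign, summing to ±2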
- Calls: active = both siRNAs shift cisplatin killing the same way; inactive = no consistent shift, or siRNA harmful alone
In all, the deposit lists about 23,000 reagents; this is a part drawn at random. 455 of all reagents (2%) were called active. 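Active includes both protection and sensitisation; some change values fall well beyond the stated -50 to +50 range.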 Not all columns of the deposit are shown. No sequences are given here. Not given: the amount of reagent.

Depletion of COL15A1 gave: two-siRNA summed score (-2 to +2) = 0; mean protection from cisplatin (shift in death) (%) = 7.2; inactive.
CD300LB gave two-siRNA summed score (-2 to +2) = 0; mean protection from cisplatin (shift in death) (%) = 0.2; inactive.
Silencing of ZNF318 came out at: two-siRNA summed score (-2 to +2) = 0; mean protection from cisplatin (shift in death) (%) = 16; inactive.
Against TM9SF4 the deposit lists two-siRNA summed score (-2 to +2) = 1; mean protection from cisplatin (shift in death) (%) = 6.5; inactive.
After knock-down of LOC401537, the screen gave two-siRNA summed score (-2 to +2) = -1; mean protection from cisplatin (shift in death) (%) = -4.3; inactive.
Knock-down of XCR1 came out at: two-siRNA summed score (-2 to +2) = 0; mean protection from cisplatin (shift in death) (%) = 2.9; inactive.
With knock-down of PPP1R2C, the record shows two-siRNA summed score (-2 to +2) = 0; mean protection from cisplatin (shift in death) (%) = -2; inactive.
Silencing of LOC388923 resulted in: two-siRNA summed score (-2 to +2) = 0; mean protection from cisplatin (shift in death) (%) = 2.1; inactive.
After knock-down of COQ10B the results were two-siRNA summed score (-2 to +2) = 0; mean protection from cisplatin (shift in death) (%) = 5.2; inactive.
Silencing of LOC441370 came out at: two-siRNA summed score (-2 to +2) = 0; mean protection from cisplatin (shift in death) (%) = 8; inactive.
GLCE showed two-siRNA summed score (-2 to +2) = 0; mean protection from cisplatin (shift in death) (%) = 3.8; inactive.
H6PD showed two-siRNA summed score (-2 to +2) = 0; mean protection from cisplatin (shift in death) (%) = -0.4; inactive.
Silencing of GNG13 resulted in: two-siRNA summed score (-2 to +2) = 0; mean protection from cisplatin (shift in death) (%) = -13.9; inactive.
Against LINC02372, the entry reads two-siRNA summed score (-2 to +2) = 0; mean protection from cisplatin (shift in death) (%) = 0.3; inactive.
CYLC1 showed two-siRNA summed score (-2 to +2) = 0; mean protection from cisplatin (shift in death) (%) = 7.6; inactive.
With knock-down of CACNG1, the record shows two-siRNA summed score (-2 to +2) = -1; mean protection from cisplatin (shift in death) (%) = -6; inactive.
LOC389685 gave two-siRNA summed score (-2 to +2) = 1; mean protection from cisplatin (shift in death) (%) = 15.4; inactive.

In a second layout: 4 of the entries above.
{"target gene":"LINC02372","two-siRNA summed score (-2 to +2)":0,"mean protection from cisplatin (shift in death) (%)":0.3,"Outcome":"inactive"}
{"target gene":"CYLC1","two-siRNA summed score (-2 to +2)":0,"mean protection from cisplatin (shift in death) (%)":7.6,"Outcome":"inactive"}
{"target gene":"CACNG1","two-siRNA summed score (-2 to +2)":-1,"mean protection from cisplatin (shift in death) (%)":-6,"Outcome":"inactive"}
{"target gene":"LOC389685","two-siRNA summed score (-2 to +2)":1,"mean protection from cisplatin (shift in death) (%)":15.4,"Outcome":"inactive"}

More records follow:
With knock-down of ZNF146, the record shows two-siRNA summed score (-2 to +2) = 0; mean protection from cisplatin (shift in death) (%) = 6; inactive.
Against TGFB3, the entry reads two-siRNA summed score (-2 to +2) = 0; mean protection from cisplatin (shift in death) (%) = 7.8; inactive.
Against ARHGAP4, the entry reads two-siRNA summed score (-2 to +2) = 1; mean protection from cisplatin (shift in death) (%) = 14.3; inactive.
After knock-down of KHDRBS1, the screen gave two-siRNA summed score (-2 to +2) = 0; mean protection from cisplatin (shift in death) (%) = 9.9; inactive.
For ZSCAN4 the deposit lists two-siRNA summed score (-2 to +2) = 0; mean protection from cisplatin (shift in death) (%) = 4.2; inactive.
With knock-down of S100A12, the screen gave two-siRNA summed score (-2 to +2) = 0; mean protection from cisplatin (shift in death) (%) = -0.2; inactive.
With knock-down of RUNDC3A, the screen gave two-siRNA summed score (-2 to +2) = 0; mean protection from cisplatin (shift in death) (%) = 8.6; inactive.
Silencing of VARS2 resulted in: two-siRNA summed score (-2 to +2) = 0; mean protection from cisplatin (shift in death) (%) = -28; inactive.
PIGR showed two-siRNA summed score (-2 to +2) = -1; mean protection from cisplatin (shift in death) (%) = -18; inactive.
Against ASIC3, the entry reads two-siRNA summed score (-2 to +2) = 0; mean protection from cisplatin (shift in death) (%) = 18.6; inactive.
Knock-down of LOC401237 gave: two-siRNA summed score (-2 to +2) = 0; mean protection from cisplatin (shift in death) (%) = 1.8; inactive.
GPS1 showed two-siRNA summed score (-2 to +2) = 0; mean protection from cisplatin (shift in death) (%) = -0.1; inactive.
For SLC43A2, the entry reads two-siRNA summed score (-2 to +2) = 0; mean protection from cisplatin (shift in death) (%) = -7.5; inactive.
For DNAH8, the entry reads two-siRNA summed score (-2 to +2) = 1; mean protection from cisplatin (shift in death) (%) = 12.4; inactive.
